According to PubChem BioAssay AID504467 (National Center for Advancing Translational Sciences (NCATS), 2011):
The campaign covered roughly 330,000 compounds. About 7,700 (2.3%) were called active. Inconclusive means that the source gave no clear call. Such entries were picked first, then a sample of the others. Calls come from the whole dose curve; as a rule, active = well fitted inhibition curve with a large enough effect; inconclusive = small, poorly fitted or top-dose-only effect, or effect the other way; inactive = flat fitted curve, though single readings scatter. Potencies of inconclusive entries are doubtful fits and often do not repeat.

Assay: qHTS screen for small molecules that inhibit ELG1-dependent DNA repair in human embryonic kidney (HEK293T) cells expressing luciferase-tagged ELG1; note: nearly all actives have a fitted effect of over 55% in size
Conditions: HEK293T ELG1-luciferase reporter, luminescence, 16 h, DNA damage induced by 5-fluorouridine; series mostly up to 46.1 µM
Method in brief: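 Overnight (16 hr) co-exposure of 2,000 cells/well to 5-fluorouridine and compound at 37 °C preceded detection. Luciferase was quantified via ONE-Glo luminescence; loss of signal denotes inhibition.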
Potency is the fitted concentration of half-maximal effect.

Row | SMILES | Potency
1 | Cc1ccc(S(=O)(=O)C2(C(=O)Nc3cccc(F)c3)CC2)cc1 | inconclusive: 0.651 µM [activator, full curve, poor fit]
2 | CCCCc1nnc(NC(=O)C23CC4CC(CC(NC(C)=O)(C4)C2)C3)s1 | inactive
3 | O=c1ncn(-c2cccc(F)c2)c2ncccc12 | inconclusive: 18.4 µM [activator, single point]
4 | Cc1ccc(N(CC(=O)NC2CCCCC2)C(=O)CNC(=O)c2ccco2)cc1C | inactive
5 | CN(C)Cc1nc2ccccc2c(=O)n1Cc1nc(-c2cccc([N+](=O)[O-])c2)cs1 | inactive
6 | COc1ccc2c(c1OC)C(=O)N(c1ccccc1)C2=O | inconclusive: 20.6 µM [activator, single point]
7 | CCOc1ccc(C(=O)NC(=S)Nc2ccc(NC(=O)c3ccco3)cc2)cc1[N+](=O)[O-] | inconclusive: 20.6 µM [activator, single point]
8 | Cc1cc(C)nc(SCc2nnc(SCc3ccc([N+](=O)[O-])cc3)n2Cc2ccco2)n1 | inconclusive: 20.6 µM [inhibitor, single point]
9 | O=C(CCC(=O)N/N=C/c1cc(Cl)cc(Cl)c1O)NCc1ccccc1 | inconclusive: 32.6 µM [inhibitor, single point]
10 | O=C(NCc1ccco1)C(c1cccs1)N(C(=O)C1COc2ccccc2O1)c1cccc(O)c1 (centres undefined) | active: 13 µM
11 | O=C(CSc1nc2ccccc2c(=O)n1-c1ccc(Cl)cc1)N/N=C/C=C/c1ccccc1[N+](=O)[O-] | inconclusive: 3.66 µM [inhibitor, full curve]
12 | COc1ccc(N2CS(=O)CC2=O)cc1 (centres undefined) | inconclusive: 16.4 µM [activator, partial curve, poor fit]
13 | CC(C)c1ccccc1NC(=O)COC(=O)Cc1c[nH]c2ccccc12 | inactive
14 | N#CCCN1CCN(C(=S)c2ccc(-c3cccc(Cl)c3)o2)CC1 | inconclusive: 10.3 µM [activator, partial curve]
15 | COc1cc(NC(=O)C[n+]2ccc(C(=O)c3ccccc3)cc2)cc(OC)c1 | inconclusive: 16.4 µM [activator, partial curve]
16 | COc1ccc(S(=O)(=O)N2CCN(C(=O)c3cc(C4CC4)nn3-c3ccccc3)CC2)cc1OC | inconclusive: 23.1 µM [inhibitor, single point]
17 | COC1=C/C(=C/c2c(N)n3cc(C)sc3nc2=O)C=CC1=O | inconclusive: 23.1 µM [activator, single point]
18 | N#C/C(C(=O)NCc1ccccc1)=C1/N=C(NC(=O)c2cccs2)c2ccccc21 | inconclusive: 18.4 µM [inhibitor, single point]
19 | Cc1c(C(=O)O)cnc2cc(-c3ccc(Cl)cc3)nn12 | inconclusive: 11.6 µM [activator, partial curve]
20 | C=CCn1c(SCC(=O)NC)nc2sc3c(c2c1=O)CCC3 | inconclusive: 18.4 µM [activator, partial curve, poor fit]
21 | Cc1cc(C)c(S(=O)(=O)N2CCN(C(=O)c3cc4ccccc4o3)CC2)c(C)c1 | inconclusive: 18.3 µM [inhibitor, partial curve, poor fit]
22 | NC(=O)c1cc(Br)cc(C2CCCCC2)c1O | inactive

Row | SMILES | Potency
23 | COc1cccc(C2c3c(C)nn(-c4ccc([N+](=O)[O-])cc4)c3N=C3C(=O)Nc4ccccc4N32)c1 (centres undefined) | inconclusive: 6.51 µM [inhibitor, single point]
24 | NCC(c1ccccc1)(c1ccccc1)c1ccccc1 | inconclusive: 32.6 µM [inhibitor, single point]
25 | N#Cc1ccc(N2C(=O)[C@@H]3C(C(=O)c4ccc5ccccc5n4)=NN[C@@H]3C2=O)cc1 | inactive
26 | COc1ccc(N/C(=C/[N+](=O)[O-])SC)cc1 | inactive
27 | O=C(C1CCN(c2nnc(N3CCCC3=O)s2)CC1)N1CCN(Cc2ccc3c(c2)OCO3)CC1 | active: 13 µM
28 | Cc1onc(-c2ccccc2)c1C(=O)NC(=S)Nc1sc2c(c1C#N)CCCC2 | inactive
29 | COc1cc2c(cc1OC)C(c1ccccc1OC(C)C)CC(=O)N2 (centres undefined) | inactive
30 | CC(=O)c1cccc(OCc2cc(C(=O)NCc3nc(C)c(C)s3)no2)c1 | inconclusive: 14.6 µM [activator, partial curve]
31 | CCCc1ccc(OCCNC(=O)CC)cc1 | inactive
32 | CS(=O)(=O)c1ccc(Sc2nc3ccccc3s2)c([N+](=O)[O-])c1 | inconclusive: 20.6 µM [activator, partial curve]
33 | CCOc1ccc2c(c1)C(C)=CC(C)(C)N2 | inactive
34 | COc1ccc2sc(-c3ccccc3OC)c(C#CC(C)(C)O)c2c1 | inconclusive: 18.3 µM [inhibitor, single point]
35 | COc1ccc(S(=O)(=O)N2CCCC2)c2ccccc12 | inactive
36 | Cc1ccc(NC(=O)c2oc3ccc(S(=O)(=O)N4CCOCC4)cc3c2C)cc1C | inconclusive: 3.66 µM [inhibitor, partial curve]
37 | Cc1csc(SCCn2c(N3CCCC3)nc3c2c(=O)[nH]c(=O)n3C)n1 | inconclusive: 0.13 µM [inhibitor, full curve]
38 | COc1ccc(N2CCN(C(c3nnnn3CCc3ccccc3)C(C)C)CC2)cc1 (centres undefined) | inconclusive: 23.1 µM [inhibitor, partial curve]
39 | Cc1cc(=O)[nH]c2ccccc12 | inconclusive: 18.4 µM [activator, partial curve, poor fit]
40 | CCC(=O)N1CCc2cc(S(=O)(=O)NCCC(=O)Nc3cc(C)cc(C)c3)ccc21 | inactive
41 | COC(=O)/C=C\C(=O)Nc1cccc([N+](=O)[O-])c1 | inconclusive: 23.1 µM [activator, single point]
42 | COc1cc(CCc2ccccc2)c(C(=O)O)c(O)c1C/C=C(/C)CCC=C(C)C | inconclusive: 18.3 µM [inhibitor, single point]
43 | CC(=O)NCCOc1nc(N(C)C)nc(N2CCOCC2)n1 | inconclusive: 18.4 µM [activator, single point]
44 | O=C(CSc1nnc(CNc2ccc(F)cc2)o1)c1ccccc1 | inconclusive: 11.6 µM [activator, partial curve]

By substructure, the compounds so far containing fluorine.
Row | SMILES | Potency
1 | Cc1ccc(S(=O)(=O)C2(C(=O)Nc3cccc(F)c3)CC2)cc1 | inconclusive: 0.651 µM [activator, full curve, poor fit]
3 | O=c1ncn(-c2cccc(F)c2)c2ncccc12 | inconclusive: 18.4 µM [activator, single point]
44 | O=C(CSc1nnc(CNc2ccc(F)cc2)o1)c1ccccc1 | inconclusive: 11.6 µM [activator, partial curve]
